Experimental data from patent US20240373847A1, “HERBICIDAL MALONAMIDES” (BASF SE, priority 2021, published 2024).
Some of these results come from one statement about several compounds together. For at least one compound, name, drawing or mass did not settle the structure.

Key:
Format in all cases: in vivo
[1] = tested on: Amaranthus retroflexus (AMARE); assay: greenhouse test, post-emergence treatment; conditions: post-emergence method, scale from 0 to 100
Description: (§1) The culture containers used were plastic flowerpots containing loamy sand with approximately 3.0% of humus as the substrate. The seeds of the test plants were sown separately for each species.
(§2) For the post-emergence treatment, the test plants were first grown to a height of 3 to 15 cm, depending on the plant habit, and only then treated with the active ingredients which had been suspended or emulsified in water. For this purpose, the test plants were either sown directly and grown in the same containers, or they were first grown separately as seedlings and transplanted into the test containers a few days prior to treatment.
(§3) Depending on the species, the test plants were kept at 10-25° C. or 20-35° C., respectively.
(§4) The test period extended over 2 to 4 weeks. During this time, the test plants were tended, and their response to the individual treatments was evaluated.
(§5) Evaluation was carried out using a scale from 0 to 100. 100 means no emergence of the test plants, or complete destruction of at least the aerial moieties, and 0 means no damage, or normal course of growth. A good herbicidal activity is given at values of 70 to <90 and a very good herbicidal activity is given at values of 90 to 100.
(§6) The test plants used in the greenhouse experiments were of the following species: […]

[2] = tested on: Echinocloa crus-galli (ECHCG); assay: greenhouse test, post-emergence treatment; conditions: post-emergence method, scale from 0 to 100
Description: as §1, §2, §3, §4, §5, §6

Avena fatua (AVEFA) = assay: greenhouse test, post-emergence treatment; conditions: post-emergence method, scale from 0 to 100
[3] = tested on: Alopercurus myosuroides (ALOMY); assay: greenhouse test, post-emergence treatment; conditions: 0.250 kg/ha, post-emergence method; scale from 0 to 100
[4] = tested on: Abutilon theophrasti (ABUTH); assay: greenhouse test, post-emergence treatment; conditions: post-emergence method, scale from 0 to 100
[5] = tested on: Apera spica-venti (APESV); assay: greenhouse test, pre-emergence treatment; conditions: pre-emergence method, scale from 0 to 100
Description: as §1
For the pre-emergence treatment, the active ingredients, which had been suspended or emulsified in water, were applied directly after sowing by means of finely distributing nozzles. The containers were irrigated gently to promote germination and growth and subsequently covered with transparent plastic hoods until the test plants had rooted.
This cover caused uniform germination of the test plants, unless this had been impaired by the active ingredients.
as §3, §4, §5, §6

## CCC(C(=O)Nc1cc(F)cc(Cl)c1)C(=O)NC1C=CC(C(=O)O)C1 (mixture of isomers) [I.139]
[1]; 1.000 kg/ha
  herbicidal activity against AMARE: very good herbicidal activity (a very good herbicidal activity is given at values of 90 to 100)
[2]; 1.000 kg/ha
  herbicidal activity against ECHCG: very good herbicidal activity (a very good herbicidal activity is given at values of 90 to 100)
Avena fatua (AVEFA); 1.000 kg/ha
  herbicidal activity against AVEFA: good herbicidal activity (A good herbicidal activity is given at values of 70 to <90)

## C#CCOC(=O)CC(C)NC(=O)C(C)C(=O)Nc1cc(F)cc(Cl)c1 (stereo not drawn) [I.25]
Avena fatua (AVEFA); 0.250 kg/ha
  herbicidal activity against AVEFA: good herbicidal activity (A good herbicidal activity is given at values of 70 to <90)

## CC(CC(=O)OCC#N)NC(=O)C(C)C(=O)Nc1cc(F)cc(Cl)c1 (stereo not drawn) [I.29]
[3]
  herbicidal activity against ALOMY: good herbicidal activity (A good herbicidal activity is given at values of 70 to <90)
Avena fatua (AVEFA); 0.250 kg/ha
  herbicidal activity against AVEFA: good herbicidal activity (A good herbicidal activity is given at values of 70 to <90)

## CCOC(=O)C[C@H](C)NC(=O)C(C)C(=O)Nc1cc(F)cc(F)c1 (stereo partly drawn) [I.31, ethyl (3S)-3-[[3-(3,5-difluoroanilino)-2-methyl-3-oxo-propanoyl]amino]butanoate]
[3]
  herbicidal activity against ALOMY: good herbicidal activity (A good herbicidal activity is given at values of 70 to <90)
Avena fatua (AVEFA); 0.250 kg/ha
  herbicidal activity against AVEFA: good herbicidal activity (A good herbicidal activity is given at values of 70 to <90)

## CC(CC(=O)OC(C)C)NC(=O)C(C)C(=O)Nc1cc(F)cc(Cl)c1 (stereo not drawn) [I.39]
Avena fatua (AVEFA); 0.125 kg/ha
  herbicidal activity against AVEFA: good herbicidal activity (A good herbicidal activity is given at values of 70 to <90)
[4]; 0.125 kg/ha
  herbicidal activity against ABUTH: very good herbicidal activity (a very good herbicidal activity is given at values of 90 to 100)

## CC(CC(=O)NS(C)(=O)=O)NC(=O)C(C)C(=O)Nc1cc(F)cc(Cl)c1 (stereo not drawn) [I.53]
[1]; 0.250 kg/ha
  herbicidal activity against AMARE: good herbicidal activity (A good herbicidal activity is given at values of 70 to <90)
[5]; 0.250 kg/ha
  herbicidal activity against APESV: good herbicidal activity (A good herbicidal activity is given at values of 70 to <90)

## CCS(=O)(=O)NC(=O)CC(C)NC(=O)C(C)C(=O)Nc1cc(Cl)cc(Cl)c1 (stereo not drawn) [I.57]
[1]; 0.250 kg/ha
  herbicidal activity against AMARE: good herbicidal activity (A good herbicidal activity is given at values of 70 to <90)
[5]; 0.250 kg/ha
  herbicidal activity against APESV: good herbicidal activity (A good herbicidal activity is given at values of 70 to <90)
Avena fatua (AVEFA); 0.250 kg/ha
  herbicidal activity against AVEFA: good herbicidal activity (A good herbicidal activity is given at values of 70 to <90)

## CC(CC(=O)NS(=O)(=O)N1CCCCC1)NC(=O)C(C)C(=O)Nc1cc(Cl)cc(Cl)c1 (stereo not drawn) [I.66]
Avena fatua (AVEFA); 0.125 kg/ha
  herbicidal activity against AVEFA: good herbicidal activity (A good herbicidal activity is given at values of 70 to <90)
[4]; 0.125 kg/ha
  herbicidal activity against ABUTH: good herbicidal activity (A good herbicidal activity is given at values of 70 to <90)

## CC(CC(=O)NS(=O)(=O)N1CCCCC1)NC(=O)C(C)C(=O)Nc1cc(F)cc(F)c1 (stereo not drawn) [I.67]
[5]; 0.250 kg/ha
  herbicidal activity against APESV: good herbicidal activity (A good herbicidal activity is given at values of 70 to <90)
[4]; 0.250 kg/ha
  herbicidal activity against ABUTH: good herbicidal activity (A good herbicidal activity is given at values of 70 to <90)

## CC(CC(=O)NS(=O)(=O)N(C)C)NC(=O)C(C)C(=O)Nc1cc(F)cc(F)c1 (stereo not drawn) [I.74]
[5]; 0.250 kg/ha
  herbicidal activity against APESV: good herbicidal activity (A good herbicidal activity is given at values of 70 to <90)
Avena fatua (AVEFA); 0.250 kg/ha
  herbicidal activity against AVEFA: very good herbicidal activity (a very good herbicidal activity is given at values of 90 to 100)

## CONC(=O)CC(C)NC(=O)C(C)C(=O)Nc1cc(C)cc(F)c1 (stereo not drawn) [I.75]
[5]; 0.250 kg/ha
  herbicidal activity against APESV: good herbicidal activity (A good herbicidal activity is given at values of 70 to <90)

## CC(CC(=O)NS(=O)(=O)N(C)C)NC(=O)C(C)C(=O)Nc1cc(Cl)cc(Cl)c1 (stereo not drawn) [I.77]
[1]; 0.250 kg/ha
  herbicidal activity against AMARE: good herbicidal activity (A good herbicidal activity is given at values of 70 to <90)
Avena fatua (AVEFA); 0.250 kg/ha
  herbicidal activity against AVEFA: very good herbicidal activity (a very good herbicidal activity is given at values of 90 to 100)
[4]; 0.250 kg/ha
  herbicidal activity against ABUTH: good herbicidal activity (A good herbicidal activity is given at values of 70 to <90)

## CONC(=O)CC(C)NC(=O)C(C)C(=O)Nc1cc(F)cc(F)c1 (stereo not drawn) [I.79]
[5]; 0.125 kg/ha
  herbicidal activity against APESV: good herbicidal activity (A good herbicidal activity is given at values of 70 to <90)

## CCC(C(=O)Nc1cccc(I)c1)C(=O)NC(C)CCC(=O)O (stereo not drawn) [I.129]
[1]; 1.000 kg/ha
  herbicidal activity against AMARE: very good herbicidal activity (a very good herbicidal activity is given at values of 90 to 100)
[2]; 1.000 kg/ha
  herbicidal activity against ECHCG: good herbicidal activity (A good herbicidal activity is given at values of 70 to <90)
[4]; 1.000 kg/ha
  herbicidal activity against ABUTH: good herbicidal activity (A good herbicidal activity is given at values of 70 to <90)

## CCc1cccc(NC(=O)C(CC)C(=O)N[C@H]2C=C[C@@H](C(=O)O)C2)c1 (stereo partly drawn) [I.131]
[2]; 1.000 kg/ha
  herbicidal activity against ECHCG: good herbicidal activity (A good herbicidal activity is given at values of 70 to <90)
[4]; 1.000 kg/ha
  herbicidal activity against ABUTH: good herbicidal activity (A good herbicidal activity is given at values of 70 to <90)

## CCC(C(=O)Nc1cc(C)cc(F)c1)C(=O)NC(C)CCC(=O)O (stereo not drawn) [I.136]
Avena fatua (AVEFA); 1.000 kg/ha
  herbicidal activity against AVEFA: good herbicidal activity (A good herbicidal activity is given at values of 70 to <90)
[4]; 1.000 kg/ha
  herbicidal activity against ABUTH: good herbicidal activity (A good herbicidal activity is given at values of 70 to <90)

## CCOC(=O)[C@@H]1C=C[C@H](NC(=O)C(CC)C(=O)Nc2cccc(I)c2)C1 (stereo partly drawn) [I.157]
[1]; 0.250 kg/ha
  herbicidal activity against AMARE: good herbicidal activity (A good herbicidal activity is given at values of 70 to <90)
[2]; 0.250 kg/ha
  herbicidal activity against ECHCG: very good herbicidal activity (a very good herbicidal activity is given at values of 90 to 100)
Avena fatua (AVEFA); 0.250 kg/ha
  herbicidal activity against AVEFA: very good herbicidal activity (a very good herbicidal activity is given at values of 90 to 100)

## CCC(C(=O)Nc1cccc(I)c1)C(=O)N[C@H]1C=C[C@@H](C(=O)OC(C)C)C1 (stereo partly drawn) [I.160]
[1]; 0.250 kg/ha
  herbicidal activity against AMARE: very good herbicidal activity (a very good herbicidal activity is given at values of 90 to 100)
[2]; 0.250 kg/ha
  herbicidal activity against ECHCG: very good herbicidal activity (a very good herbicidal activity is given at values of 90 to 100)
Avena fatua (AVEFA); 0.250 kg/ha
  herbicidal activity against AVEFA: very good herbicidal activity (a very good herbicidal activity is given at values of 90 to 100)

## CCC(C(=O)Nc1cccc(I)c1)C(=O)N[C@H]1C=C[C@@H](C(=O)OC2CCC2)C1 (stereo partly drawn) [I.161]
[1]; 0.250 kg/ha
  herbicidal activity against AMARE: very good herbicidal activity (a very good herbicidal activity is given at values of 90 to 100)
[2]; 0.250 kg/ha
  herbicidal activity against ECHCG: very good herbicidal activity (a very good herbicidal activity is given at values of 90 to 100)
Avena fatua (AVEFA); 0.250 kg/ha
  herbicidal activity against AVEFA: very good herbicidal activity (a very good herbicidal activity is given at values of 90 to 100)

## CCC(C(=O)Nc1cccc(I)c1)C(=O)N[C@H]1C=C[C@@H](C(=O)OCC#N)C1 (stereo partly drawn) [I.162]
[1]; 0.250 kg/ha
  herbicidal activity against AMARE: good herbicidal activity (A good herbicidal activity is given at values of 70 to <90)
[2]; 0.250 kg/ha
  herbicidal activity against ECHCG: good herbicidal activity (A good herbicidal activity is given at values of 70 to <90)
Avena fatua (AVEFA); 0.250 kg/ha
  herbicidal activity against AVEFA: good herbicidal activity (A good herbicidal activity is given at values of 70 to <90)

## CCC(C(=O)Nc1cccc(I)c1)C(=O)N[C@H]1C=C[C@@H](C(=O)OCc2ccccc2)C1 (stereo partly drawn) [I.166]
[1]; 0.250 kg/ha
  herbicidal activity against AMARE: good herbicidal activity (A good herbicidal activity is given at values of 70 to <90)
[2]; 0.250 kg/ha
  herbicidal activity against ECHCG: good herbicidal activity (A good herbicidal activity is given at values of 70 to <90)
Avena fatua (AVEFA); 0.250 kg/ha
  herbicidal activity against AVEFA: very good herbicidal activity (a very good herbicidal activity is given at values of 90 to 100)
